From the supplement of paper PMC10849652
The list shows a part of the results.

Chains of the proteins cited; added tags and fusions are not shown. Lines headed by an entry give the natural chain unless they say otherwise; changes in a name come on top.
UniProt P78345: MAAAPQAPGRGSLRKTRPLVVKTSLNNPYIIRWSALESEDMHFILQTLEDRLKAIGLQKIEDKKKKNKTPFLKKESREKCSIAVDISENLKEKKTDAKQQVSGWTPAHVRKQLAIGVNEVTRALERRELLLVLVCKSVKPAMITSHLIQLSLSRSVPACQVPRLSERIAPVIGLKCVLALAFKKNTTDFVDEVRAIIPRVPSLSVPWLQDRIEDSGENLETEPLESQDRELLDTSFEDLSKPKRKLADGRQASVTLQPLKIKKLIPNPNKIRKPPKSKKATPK
UniProt Q9H633: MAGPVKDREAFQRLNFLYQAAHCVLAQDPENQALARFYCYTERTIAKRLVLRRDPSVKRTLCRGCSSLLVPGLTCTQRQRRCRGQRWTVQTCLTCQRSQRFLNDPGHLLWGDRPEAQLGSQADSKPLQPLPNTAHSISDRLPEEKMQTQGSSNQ
UniProt Q01196, whole entry, looked up: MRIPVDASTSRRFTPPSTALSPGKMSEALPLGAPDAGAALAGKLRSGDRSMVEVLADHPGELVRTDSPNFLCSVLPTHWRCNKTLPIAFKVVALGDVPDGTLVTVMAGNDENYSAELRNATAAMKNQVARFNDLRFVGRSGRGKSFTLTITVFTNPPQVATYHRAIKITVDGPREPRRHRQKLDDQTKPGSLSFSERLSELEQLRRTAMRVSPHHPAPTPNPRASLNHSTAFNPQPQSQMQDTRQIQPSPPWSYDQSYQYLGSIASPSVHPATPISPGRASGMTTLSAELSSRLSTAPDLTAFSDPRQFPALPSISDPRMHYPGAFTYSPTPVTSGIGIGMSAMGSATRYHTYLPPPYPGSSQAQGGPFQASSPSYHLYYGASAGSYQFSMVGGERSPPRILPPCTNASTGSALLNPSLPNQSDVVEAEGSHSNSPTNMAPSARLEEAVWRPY
UniProt Q9Y3B9: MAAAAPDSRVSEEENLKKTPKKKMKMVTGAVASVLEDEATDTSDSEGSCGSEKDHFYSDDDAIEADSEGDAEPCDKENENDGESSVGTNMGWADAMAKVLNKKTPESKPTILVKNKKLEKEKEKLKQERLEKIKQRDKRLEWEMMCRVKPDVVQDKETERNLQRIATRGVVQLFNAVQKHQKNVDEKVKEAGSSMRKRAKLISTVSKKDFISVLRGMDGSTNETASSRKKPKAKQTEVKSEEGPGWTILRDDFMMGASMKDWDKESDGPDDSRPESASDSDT
UniProt O75818: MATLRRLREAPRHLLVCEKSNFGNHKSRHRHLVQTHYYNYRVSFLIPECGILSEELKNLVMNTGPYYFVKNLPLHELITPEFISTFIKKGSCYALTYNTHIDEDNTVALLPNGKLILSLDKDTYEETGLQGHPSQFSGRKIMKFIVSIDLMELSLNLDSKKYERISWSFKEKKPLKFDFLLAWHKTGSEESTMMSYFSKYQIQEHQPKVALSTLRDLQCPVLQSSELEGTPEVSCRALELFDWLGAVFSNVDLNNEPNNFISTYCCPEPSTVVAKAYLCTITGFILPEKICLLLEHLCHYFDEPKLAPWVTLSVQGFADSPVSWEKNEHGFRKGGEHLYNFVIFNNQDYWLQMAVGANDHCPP
UniProt Q8N122, whole entry, looked up: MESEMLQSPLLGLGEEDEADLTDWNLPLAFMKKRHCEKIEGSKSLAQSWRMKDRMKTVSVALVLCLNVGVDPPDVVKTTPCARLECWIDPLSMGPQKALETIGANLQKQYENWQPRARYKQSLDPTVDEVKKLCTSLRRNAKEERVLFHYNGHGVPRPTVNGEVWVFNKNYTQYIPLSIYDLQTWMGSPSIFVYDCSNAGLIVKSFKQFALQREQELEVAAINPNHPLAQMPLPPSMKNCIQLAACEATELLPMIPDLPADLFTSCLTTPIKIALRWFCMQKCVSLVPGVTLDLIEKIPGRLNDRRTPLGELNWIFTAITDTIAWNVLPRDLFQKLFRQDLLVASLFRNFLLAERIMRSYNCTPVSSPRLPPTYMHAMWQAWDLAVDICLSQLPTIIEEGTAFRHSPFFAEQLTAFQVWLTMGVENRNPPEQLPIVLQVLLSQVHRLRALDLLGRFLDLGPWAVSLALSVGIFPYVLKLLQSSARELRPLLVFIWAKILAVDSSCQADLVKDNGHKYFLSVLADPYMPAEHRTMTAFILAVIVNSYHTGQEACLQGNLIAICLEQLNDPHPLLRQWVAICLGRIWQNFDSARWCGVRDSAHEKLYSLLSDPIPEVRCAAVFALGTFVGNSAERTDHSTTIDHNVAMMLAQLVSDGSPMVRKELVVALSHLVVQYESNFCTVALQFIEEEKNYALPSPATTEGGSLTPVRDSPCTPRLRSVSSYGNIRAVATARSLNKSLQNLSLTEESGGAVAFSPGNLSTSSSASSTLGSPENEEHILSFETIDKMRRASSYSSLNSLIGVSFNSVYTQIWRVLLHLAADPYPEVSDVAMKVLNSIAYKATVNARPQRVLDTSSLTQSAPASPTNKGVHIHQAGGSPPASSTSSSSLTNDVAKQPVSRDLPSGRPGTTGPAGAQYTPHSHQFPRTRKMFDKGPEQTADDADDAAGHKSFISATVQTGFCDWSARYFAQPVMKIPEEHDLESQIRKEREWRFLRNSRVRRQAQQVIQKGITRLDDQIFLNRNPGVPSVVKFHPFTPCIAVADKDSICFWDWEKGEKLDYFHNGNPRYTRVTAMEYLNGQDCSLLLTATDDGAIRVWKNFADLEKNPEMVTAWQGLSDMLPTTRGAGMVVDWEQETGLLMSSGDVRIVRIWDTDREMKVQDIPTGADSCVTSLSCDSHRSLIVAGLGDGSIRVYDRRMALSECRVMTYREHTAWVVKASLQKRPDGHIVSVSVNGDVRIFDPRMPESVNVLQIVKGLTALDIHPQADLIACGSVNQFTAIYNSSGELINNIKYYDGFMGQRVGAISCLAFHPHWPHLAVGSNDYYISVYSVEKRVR
UniProt O43159: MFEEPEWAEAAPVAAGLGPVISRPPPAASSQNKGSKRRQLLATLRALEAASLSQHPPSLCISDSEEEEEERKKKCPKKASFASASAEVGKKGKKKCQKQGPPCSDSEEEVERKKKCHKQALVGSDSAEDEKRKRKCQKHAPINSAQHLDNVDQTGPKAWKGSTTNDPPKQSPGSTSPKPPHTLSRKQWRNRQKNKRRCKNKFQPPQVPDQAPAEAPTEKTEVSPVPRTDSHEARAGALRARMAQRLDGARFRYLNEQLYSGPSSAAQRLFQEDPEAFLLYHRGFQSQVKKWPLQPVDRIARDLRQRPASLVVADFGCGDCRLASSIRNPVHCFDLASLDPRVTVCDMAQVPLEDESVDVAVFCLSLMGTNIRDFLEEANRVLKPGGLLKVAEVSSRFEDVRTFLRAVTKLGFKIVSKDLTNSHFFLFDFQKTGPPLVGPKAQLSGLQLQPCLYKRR
UniProt Q9BY42: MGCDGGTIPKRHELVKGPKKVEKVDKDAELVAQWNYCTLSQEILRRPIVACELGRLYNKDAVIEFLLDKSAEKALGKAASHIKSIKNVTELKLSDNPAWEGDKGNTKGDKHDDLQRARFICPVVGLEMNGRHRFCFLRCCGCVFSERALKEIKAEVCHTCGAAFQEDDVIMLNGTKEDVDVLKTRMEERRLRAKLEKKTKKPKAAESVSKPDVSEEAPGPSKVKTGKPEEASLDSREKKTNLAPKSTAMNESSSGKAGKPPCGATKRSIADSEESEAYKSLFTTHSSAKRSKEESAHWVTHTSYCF
UniProt Q8IZ73: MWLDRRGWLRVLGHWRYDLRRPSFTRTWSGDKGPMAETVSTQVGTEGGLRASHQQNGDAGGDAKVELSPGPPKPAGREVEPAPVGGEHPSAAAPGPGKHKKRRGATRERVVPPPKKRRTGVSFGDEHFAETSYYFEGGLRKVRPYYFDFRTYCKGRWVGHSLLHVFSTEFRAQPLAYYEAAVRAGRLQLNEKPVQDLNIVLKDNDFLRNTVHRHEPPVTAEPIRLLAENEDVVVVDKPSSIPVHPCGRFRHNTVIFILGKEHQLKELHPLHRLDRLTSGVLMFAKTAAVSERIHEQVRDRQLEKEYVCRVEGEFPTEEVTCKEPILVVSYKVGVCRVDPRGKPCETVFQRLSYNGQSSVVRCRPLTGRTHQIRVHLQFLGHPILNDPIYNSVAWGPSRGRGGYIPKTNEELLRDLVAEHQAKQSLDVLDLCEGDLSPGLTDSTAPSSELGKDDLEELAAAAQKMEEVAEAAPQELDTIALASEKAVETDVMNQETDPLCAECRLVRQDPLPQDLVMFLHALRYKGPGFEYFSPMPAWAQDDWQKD

Key:
Test in all cases: log2 fold change, soluble protein after heating vs DMSO (PISA); higher = thermal stabilisation; K562 lysate, 10 uM; active = over 0.2 and 3.5 SD of the protein, either way, in both replicates (recomputed)
alvocidib = compound: CN1CC[C@H](c2c(O)cc(O)c3c(=O)cc(-c4ccccc4Cl)oc23)[C@H](O)C1 [alvocidib]
In short: (§1)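 Log-two fold change in thermal stability relative to solvent controls is reported from duplicates. For each sample, crude K562 extract from dounce-homogenised pellets in PBS pH 7.4 with 1 mM MgCl2, at 1 mg/mL protein, was treated with 10 μM compound for 30 min. Aliquots heated for 3 min across 48°C-58°C were pooled, brought to 0.5% NP-40 at 4°C and cleared at 21,000xg for 90 min. The supernatant was quantified by TMTpro 16plex LC-MS/MS with channel sums equalised.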

Tubastatin A = compound: CN1CCc2c(c3ccccc3n2Cc2ccc(C(=O)NO)cc2)C1 [Tubastatin A]
In short: as §1

[1] = compound: CNC(=O)C1=CC=CC=C1NC2=NC(=NC=C2Cl)NC3=C(C=C(C=C3)N4CCOCC4)OC
In short: as §1

defactinib = compound: CNC(=O)c1ccc(Nc2ncc(C(F)(F)F)c(NCc3nccnc3N(C)S(C)(=O)=O)n2)cc1 [defactinib]
In short: as §1

[2] = compound: CNc1nc(-c2ccc3c(N)n[nH]c3c2)cc(N2C[C@@H](C(=O)NC3CCCCC3)CC[C@H]2C)n1
In short: as §1

encorafenib = compound: COC(=O)N[C@@H](C)CNc1nccc(-c2cn(C(C)C)nc2-c2cc(Cl)cc(NS(C)(=O)=O)c2F)n1 [encorafenib]
In short: as §1

[3] = compound: COC(=O)[C@H](CCSC)NC(=O)C1=C(C=C(C=C1)NC[C@H](CS)N)C2=CC=CC=C2
In short: as §1

alisertib = compound: COc1cc(Nc2ncc3c(n2)-c2ccc(Cl)cc2C(c2c(F)cccc2OC)=NC3)ccc1C(=O)O [alisertib]
In short: as §1

[4] = compound: COc1cc2nc(-c3cc(F)ccc3O)nc(N[C@@H]3CNC[C@H]3C(C)(C)O)c2cc1OC
In short: as §1

gefitinib = compound: COc1cc2ncnc(Nc3ccc(F)c(Cl)c3)c2cc1OCCCN1CCOCC1 [gefitinib]
In short: as §1

lapatinib = compound: CS(=O)(=O)CCNCc1ccc(-c2ccc3ncnc(Nc4ccc(OCc5cccc(F)c5)c(Cl)c4)c3c2)o1 [lapatinib]
In short: as §1

pictilisib = compound: CS(=O)(=O)N1CCN(Cc2cc3nc(-c4cccc5[nH]ncc45)nc(N4CCOCC4)c3s2)CC1 [pictilisib]
In short: as §1

crizotinib = compound: C[C@@H](Oc1cc(-c2cnn(C3CCNCC3)c2)cnc1N)c1c(Cl)ccc(F)c1Cl [crizotinib]
In short: as §1

[5] = compound: C[C@H](C1=CC=C(C=C1)C(=O)NC2=C3C=CNC3=NC=C2)N
In short: as §1

duvelisib = compound: C[C@H](Nc1ncnc2nc[nH]c12)c1cc2cccc(Cl)c2c(=O)n1-c1ccccc1 [duvelisib]
In short: as §1

gandotinib = compound: Cc1cc(Nc2cc(CN3CCOCC3)c3nc(C)c(Cc4ccc(Cl)cc4F)n3n2)n[nH]1 [gandotinib]
In short: as §1

tozasertib = compound: Cc1cc(Nc2cc(N3CCN(C)CC3)nc(Sc3ccc(NC(=O)C4CC4)cc3)n2)n[nH]1 [tozasertib]
In short: as §1

doramapimod = compound: Cc1ccc(-n2nc(C(C)(C)C)cc2NC(=O)Nc2ccc(OCCN3CCOCC3)c3ccccc23)cc1 [doramapimod]
In short: as §1

bafetinib = compound: Cc1ccc(NC(=O)c2ccc(CN3CC[C@H](N(C)C)C3)c(C(F)(F)F)c2)cc1Nc1nccc(-c2cncnc2)n1 [bafetinib]
In short: as §1

[6] = compound: Cc1cccc(CC(=O)N2CCc3c2ccc(-c2cn(C)c4ncnc(N)c24)c3F)n1
In short: as §1

Target	log2 fold change (alvocidib)	log2 fold change (Tubastatin A)	log2 fold change [1]	log2 fold change (defactinib)	log2 fold change [2]	log2 fold change (encorafenib)	log2 fold change [3]	log2 fold change (alisertib)	log2 fold change [4]	log2 fold change (gefitinib)	log2 fold change (lapatinib)	log2 fold change (pictilisib)	log2 fold change (crizotinib)	log2 fold change [5]	log2 fold change (duvelisib)	log2 fold change (gandotinib)	log2 fold change (tozasertib)	log2 fold change (doramapimod)	log2 fold change (bafetinib)	log2 fold change [6]
RPP38 (UniProt P78345)	inactive: -0.03	inactive: 0	inactive: 0.017	inactive: 0.011	inactive: 0.05	inactive: 0.016	inactive: -0.024	inactive: -0.001	inactive: -0.01	inactive: 0.007	inactive: 0.011	inactive: 0.02	inactive: 0.001	inactive: -0.084	inactive: -0.03	inactive: 0.027	inactive: 0.029	inactive: 0.011	inactive: -0.014	inactive: 0.06
RPP21 isoform 4 (UniProt Q9H633)	inactive: -0.033	inactive: 0.071	inactive: -0.028	inactive: 0.082	inactive: 0.055	inactive: -0.07	inactive: 0.031	inactive: -0.155	inactive: 0.059	inactive: -0.016	inactive: 0.006	inactive: 0	inactive: -0.049	inactive: -0.124	inactive: 0.115	inactive: 0.06	inactive: -0.005	inactive: -0.049	inactive: 0.015	inactive: 0.036
RUNX1 isoform 8 (UniProt Q01196)	inactive: 0.037	inactive: -0.114	inactive: 0.004	inactive: -0.029	inactive: -0.112	inactive: 0.077	inactive: -0.03	inactive: 0.043	inactive: -0.023	inactive: 0.016	inactive: -0.049	inactive: -0.049	inactive: 0.132	inactive: -0.017	inactive: 0.015	inactive: 0.003	inactive: 0.064	inactive: 0.048	inactive: -0.002	inactive: -0.056
RPL37 (UniProt P61927)	inactive: 0.007	inactive: 0.031	inactive: -0.091	inactive: 0.077	inactive: 0.051	inactive: -0.003	inactive: 0.02	inactive: 0.005	inactive: -0.011	inactive: -0.037	inactive: 0.017	inactive: 0	inactive: 0.122	inactive: 0.017	inactive: 0	inactive: -0.016	inactive: -0.048	inactive: -0.162	inactive: -0.037	inactive: 0.024
RPL39P5 (UniProt Q59GN2)	inactive: -0.017	inactive: 0.012	inactive: 0.006	inactive: 0	inactive: 0.034	inactive: -0.053	inactive: 0.008	inactive: 0.02	inactive: -0.014	inactive: -0.005	inactive: -0.008	inactive: -0.016	inactive: 0.081	inactive: 0.012	inactive: 0.028	inactive: 0.031	inactive: -0.049	inactive: -0.024	inactive: 0.09	inactive: 0.015
RPL7A (UniProt P62424)	inactive: 0.003	inactive: 0.061	inactive: -0.018	inactive: -0.003	inactive: 0.047	inactive: -0.023	inactive: -0.015	inactive: 0	inactive: 0.009	inactive: -0.06	inactive: -0.016	inactive: 0.007	inactive: 0.037	inactive: 0.135	inactive: 0.037	inactive: -0.047	inactive: -0.03	inactive: -0.069	inactive: 0.051	inactive: -0.039
RRP15 (UniProt Q9Y3B9)	inactive: 0.018	inactive: -0.042	inactive: 0.039	inactive: 0.029	inactive: -0.001	inactive: 0.033	inactive: -0.085	inactive: 0.023	inactive: -0.018	inactive: 0.024	inactive: -0.01	inactive: 0.014	inactive: 0.01	inactive: 0.012	inactive: -0.03	inactive: 0.121	inactive: -0.059	inactive: 0	inactive: -0.032	inactive: -0.006
RPS15A (UniProt P62244)	inactive: -0.01	inactive: -0.031	inactive: -0.001	inactive: 0.005	inactive: 0.04	inactive: -0.009	inactive: 0.039	inactive: 0.008	inactive: 0.001	inactive: -0.002	inactive: -0.008	inactive: -0.004	inactive: -0.021	inactive: 0.08	inactive: 0.015	inactive: -0.026	inactive: 0.006	inactive: 0.014	inactive: 0.005	inactive: -0.003
RPS9 (UniProt P46781)	inactive: 0.053	inactive: 0.006	inactive: -0.036	inactive: -0.064	inactive: 0.006	inactive: -0.022	inactive: 0.065	inactive: 0.004	inactive: -0.003	inactive: -0.033	inactive: -0.012	inactive: 0.009	inactive: 0.061	active: 0.244	inactive: 0.006	inactive: -0.087	inactive: 0.016	inactive: -0.023	inactive: 0.034	inactive: -0.07
RPP40 (UniProt O75818)	inactive: 0.077	inactive: -0.026	inactive: 0.008	inactive: 0.022	inactive: -0.086	inactive: 0.012	inactive: -0.107	inactive: -0.01	inactive: -0.027	inactive: -0.007	inactive: -0.005	inactive: -0.034	inactive: 0.05	inactive: 0.057	inactive: 0.037	inactive: -0.055	inactive: 0.026	inactive: 0.038	inactive: -0.011	inactive: -0.087
RPTOR (UniProt Q8N122)	inactive: 0.008	inactive: -0.11	inactive: 0.036	inactive: 0	inactive: -0.048	inactive: -0.004	inactive: -0.007	inactive: -0.012	inactive: -0.005	inactive: -0.007	inactive: -0.001	inactive: -0.024	inactive: -0.056	inactive: -0.044	inactive: -0.024	inactive: -0.097	inactive: 0.019	inactive: 0.025	inactive: -0.057	inactive: 0.009
RRP8 (UniProt O43159)	inactive: 0.055	inactive: -0.072	inactive: -0.045	inactive: -0.062	inactive: 0.035	inactive: 0.092	inactive: 0.101	inactive: -0.011	inactive: -0.026	inactive: -0.031	inactive: 0.001	inactive: 0.009	inactive: -0.024	inactive: -0.063	inactive: 0.055	inactive: -0.146	inactive: 0.007	inactive: 0.043	inactive: -0.04	inactive: -0.014
RPS6 (UniProt P62753)	inactive: -0.035	inactive: 0.026	inactive: -0.058	inactive: 0.007	inactive: 0.025	inactive: -0.018	inactive: 0.014	inactive: 0.019	inactive: -0.01	inactive: 0.004	inactive: -0.031	inactive: 0.025	inactive: -0.013	inactive: -0.148	inactive: 0.042	inactive: 0.02	inactive: 0	inactive: -0.001	inactive: -0.003	inactive: 0.069
RTF2 (UniProt Q9BY42)	inactive: 0.014	inactive: -0.031	inactive: 0.04	inactive: 0.016	inactive: -0.004	inactive: 0.007	inactive: -0.028	inactive: -0.012	inactive: 0.043	inactive: 0.039	inactive: 0.075	inactive: -0.123	inactive: 0.033	inactive: 0.016	inactive: 0.02	inactive: -0.079	inactive: 0.032	inactive: -0.02	inactive: -0.011	inactive: 0.001
RPUSD2 (UniProt Q8IZ73)	inactive: 0.011	inactive: 0.02	inactive: 0.029	inactive: -0.018	inactive: 0.065	inactive: -0.039	inactive: 0.095	inactive: -0.007	inactive: 0.007	inactive: -0.015	inactive: 0.003	inactive: -0.019	inactive: -0.005	inactive: -0.007	inactive: 0.018	inactive: 0.037	inactive: -0.033	inactive: -0.022	inactive: 0.068	inactive: -0.032
RPS18 (UniProt P62269)	inactive: -0.057	inactive: 0.04	inactive: -0.021	inactive: 0.016	inactive: 0.025	inactive: -0.022	inactive: 0.054	inactive: 0.013	inactive: 0.001	inactive: -0.032	inactive: -0.046	inactive: 0.006	inactive: -0.028	inactive: -0.186	inactive: -0.019	inactive: 0.071	inactive: 0.008	inactive: 0.026	inactive: -0.004	inactive: 0.094
